The test relates to STAT6. As to the kind of experiment: Screening compounds inhibiting promotion of STAT6 activity (STAT6 reporter activity). Conditions: 30 μM, mouse IL-4 1 ng/ml, 6 h. In kind it is cell-based. The method, then: NIH3T3 cells were seeded on 10% FBS containing IMDM medium in a 96-well cell culture plate to a final cell density of 1×10^4 cells/100 μl/well, and cultured for 24 hours at 37° C. in the presence of 5% CO2. Then, 30 ng of the plasmid containing the nucleotide encoding the STAT6 activation-promoting protein of SEQ ID NO: 3, 17, 19, 218, 432 or 472, or the nucleotide of SEQ ID NO: 64, and 100 ng of the luciferase reporter plasmid having the STAT6 response sequence were cotransfected into the cells in a well using FuGENE 6. […] After 30 min of culture at 37° C., followed by 6 hours of culture with addition of mouse IL-4 to a final concentration of 1 ng/ml, the reporter activity was measured using PIKKA GENE LT2.0.

Consider `CN[C@@H]1C[C@H]2O[C@@](C)([C@@H]1OC)n1c3ccccc3c3c4c(c5c6ccccc6n2c5c31)C(=O)NC4` [staurosporin], for which the “inhibition of expression of the STAT6 reporter gene, control plasmid well” value (NIH3T3 cells with control plasmid pcDNA3.1 (+)) was “no expression was inhibited at all”. Also, the “inhibition of expression of the STAT6 reporter gene (relative luciferase activity)” value (NIH3T3 cells with plasmid for STAT6 activation-promoting protein of SEQ ID NO: 3, 17, 19, 218, 432 or 472, or nucleotide of SEQ ID NO: 64, FIGS. 1 to 7) is on record as “inhibited”.
